Earlier results in paper PMC3735429, “Plasmodium falciparum encodes a conserved active inhibitor-2 for Protein Phosphatase type 1: perspectives for novel anti-plasmodial therapy” (BMC Biology, 2013).

Tested on: Plasmodium falciparum
Set-up: method as in PMID 9636646, PMID 7957765, PMID 8698101
Details: ref [1]-[3]; cited from earlier work
Source text: During its life cycle, Plasmodium falciparum, the deadliest malaria parasite for humans, undergoes several successive rounds of mitosis to amplify parasite populations and consequently to increase the rate of its transmission. Among the essential actors in the growth and division of the parasite are kinases and phosphatases. […] Subsequently, the identification of kinases and phosphatases and their central functions in P. falciparum[4-9] ...

CN[C@@H]1C[C@H]2O[C@@](C)([C@@H]1OC)n1c3ccccc3c3c4c(c5c6ccccc6n2c5c31)C(=O)NC4 [staurosporine]
inhibition of parasite growth in vitro: drastically inhibited parasite growth in vitro
